Experimental data: patent US12156871B2, “Substituted azacycles as muscarinic M1 receptor positive allosteric modulators” (SUVEN LIFE SCIENCES LIMITED, priority 2017, dated 2024)

Tested on: hippocampal theta oscillations
Test: Theta modulation in dorsal hippocampus of anesthetized rats in combination with donepezil
Type: in vivo, Male Wistar rats
Conditions: donepezil alone, 0.3 mg/kg, i.v., anesthetized rat
Method: Effect of M1 PAM compound (Example 38) in combination with donepezil on brain activity as a pharmacodynamic endpoint is evaluated.
Male Wistar rats (240-320 g) were anesthetized by intraperitoneal administration of urethane (1.2 to 1.5 g/kg) for implantation of a catheter in the left femoral vein. The animal was placed in a stereotaxic frame for implanting an electrode (stainless steel wire, Plastics One) into the dorsal hippocampus (AP: 3.8 mm; ML: +2.2 mm; DV: 2.5 mm; Paxinos and Watson, 2004). Bipolar stimulating electrode (untwisted stainless steel wires, separated by 0.75-1.0 mm at their tips, Plastics One) was implanted in the Nucleus Pontis Oralis (NPO; AP: 7.8 mm; ML: 1.8 mm; DV: 6.0 mm; Paxinos and Watson, 2004). Additionally one electrode was implanted into the cerebellum which served as a reference. Hippocampal θ rhythm was evoked via a 6-s electrical stimulation train (20-160 μA, 0.3-ms pulse duration, 250 Hz) delivered to the NPO at a rate of 0.01 trains/s with a Grass S88 stimulator and PSIU6 stimulus isolation unit (Grass Medical Instruments, Quincy, MA). EEG was recorded at a rate of 1000 Hz using Ponemah (Version 5.2) software and stored for off-line analysis using NeuroScore (Version 3.0). […]
Power in the θ rhythm frequency in the stimulation period during the 30-min baseline period was calculated and the % changes in these measures post treatment were calculated. […]

COc1cc2c(cc1OC)C(=O)C(CC1CCN(Cc3ccccc3)CC1)C2 (stereo not shown) [donepezil, reference compound]
hippocampal θ power: moderate increase
